Experimental findings from patent US20220331423A1 (WISTAR INSTITUTE OF ANATOMY AND BIOLOGY, published 2022) are described below.

Sequences of proteins named here, by UniProt entry; tags and fusion partners are left off. Residues count along the entry.
UniProt Q92956, residues 39-200: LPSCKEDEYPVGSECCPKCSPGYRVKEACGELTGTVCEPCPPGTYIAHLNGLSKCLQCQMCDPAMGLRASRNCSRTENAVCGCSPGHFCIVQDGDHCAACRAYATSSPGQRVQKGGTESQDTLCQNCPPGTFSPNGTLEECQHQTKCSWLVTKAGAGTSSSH

In the assay the target is purified human HVEM (herpes virus entry mediator), coated on ELISA plates (human) (UniProt Q92956). Put plainly: ELISA: gD-normalized extracts of AdC68gD-infected CHO-CAR cells on plates coated with purified HVEM. (An ELISA detects its analyte on a solid surface through an enzyme-linked reagent.)

Results are given in words; binding and its absence hold for the method and conditions named. Some entries that bind do so weakly or less than the wild type.

With “HSV-1 glycoprotein D (gD), non-fused, expressed from AdC68gD (from UniProt Q05059 26-394) (ligand)”, the binding result is on record as “binds”.
